{
  "sequences": {"note": "Chains of the proteins cited; added tags and fusions are not shown. Residues count along the entry.", "UniProt P98170, 120-356 limits assumed": "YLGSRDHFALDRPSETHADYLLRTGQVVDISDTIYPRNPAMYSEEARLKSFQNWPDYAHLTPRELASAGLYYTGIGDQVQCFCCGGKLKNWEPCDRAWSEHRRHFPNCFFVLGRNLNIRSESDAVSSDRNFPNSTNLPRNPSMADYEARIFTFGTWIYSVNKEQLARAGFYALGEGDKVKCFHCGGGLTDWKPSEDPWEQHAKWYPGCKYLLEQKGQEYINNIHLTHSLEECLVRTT"},
  "source": "patent US8883771B2",
  "key": {"[1]": {"molecular_target": "cIAP1-BIR3 (residues 253-363) (Homo sapiens (Human), UniProt Q13490)", "assay": "Fluorescence polarization (FP) based competitive binding assay, cIAP1-BIR3", "conditions": "read-out: Binding Affinities IC50 (nM) cIAP1 Protein, Smac-2F probe"}, "[2]": {"molecular_target": "cIAP-2 BIR3 (residues 238-349) (Homo sapiens (Human), UniProt Q13489)", "assay": "Fluorescence polarization (FP) based competitive binding assay, cIAP-2 BIR3", "conditions": "read-out: Binding Affinities IC50 (nM) cIAP2 Protein, Smac-2F probe"}, "[3]": {"molecular_target": "XIAP linker-BIR2-BIR3 (residues 120-356) (Homo sapiens (Human), UniProt P98170)", "assay": "Fluorescence polarization (FP) based competitive binding assay, XIAP linker-BIR2-BIR3", "conditions": "read-out: Binding Affinities IC50 (nM) XIAP Protein, Smac-1F probe"}, "[4]": {"system": "SK-OV-3 ovarian cancer cell line", "assay": "Inhibition of cell growth in SK-OV-3 ovarian cancer cell line", "type": "cell-based, human", "conditions": "read-out: Cell growth Inhibition (IC50, nM) SK-OV-3 Cancer Cell Line"}, "[5]": {"system": "MDA-MB-231 breast cancer cell line", "assay": "Inhibition of cell growth in MDA-MB-231 breast cancer cell line", "type": "cell-based, human", "conditions": "read-out: Cell growth Inhibition (IC50, nM) MDA-MB-231 Cancer Cell Line"}},
  "note": "The match of structure and compound is tentative.",
  "data": [
    {"molecule": "CN[C@@H](C)C(=O)N[C@H]1CN(C(=O)NCCCCCCNC(=O)N2CC[C@H]3CC[C@@H](C(=O)N[C@@H]4CCCC[C@H]4c4ccccc4)N3C(=O)[C@@H](NC(=O)[C@H](C)NC)C2)CC[C@H]2CC[C@@H](C(=O)N[C@@H]3CCCC[C@H]3c3ccccc3)N2C1=O", "values": [
      {"measurement": "IC50", "setting": "[1]", "result": "< 5000", "unit": "nM"},
      {"measurement": "IC50", "setting": "[2]", "result": "< 5000", "unit": "nM"},
      {"measurement": "IC50", "setting": "[3]", "result": "< 5000", "unit": "nM"},
      {"measurement": "IC50", "setting": "[4]", "result": "< 1000", "unit": "nM"},
      {"measurement": "IC50", "setting": "[5]", "result": "< 1000", "unit": "nM"}
    ]},
    {"molecule": "CN[C@@H](C)C(=O)N[C@H]1CN(C(=S)Nc2ccc(Cc3ccc(NC(=S)N4CC[C@H]5CC[C@@H](C(=O)NC(c6ccccc6)c6ccccc6)N5C(=O)[C@@H](NC(=O)[C@H](C)NC)C4)cc3)cc2)CC[C@H]2CC[C@@H](C(=O)NC(c3ccccc3)c3ccccc3)N2C1=O", "values": [
      {"measurement": "IC50", "setting": "[4]", "result": "< 1000", "unit": "nM"},
      {"measurement": "IC50", "setting": "[5]", "result": "< 1000", "unit": "nM"}
    ]},
    {"molecule": "CN[C@@H](C)C(=O)N[C@H]1CN(C(=O)Nc2ccc(NC(=O)N3CC[C@H]4CC[C@@H](C(=O)N[C@H]5C[C@@H]5c5ccc(C(F)(F)F)cc5)N4C(=O)[C@@H](NC(=O)[C@H](C)NC)C3)cc2)CC[C@H]2CC[C@@H](C(=O)N[C@H]3C[C@@H]3c3ccc(C(F)(F)F)cc3)N2C1=O", "note": "[Example 35]", "values": [
      {"measurement": "IC50", "setting": "[4]", "result": "< 10000", "unit": "nM"},
      {"measurement": "IC50", "setting": "[5]", "result": "< 10000", "unit": "nM"}
    ]},
    {"molecule": "CN[C@@H](C)C(=O)N[C@H]1CN(S(=O)(=O)c2cccc(S(=O)(=O)N3CC[C@H]4CC[C@@H](C(=O)NC(c5ccccc5)c5ccccc5)N4C(=O)[C@@H](NC(=O)[C@H](C)NC)C3)c2)CC[C@H]2CC[C@@H](C(=O)NC(c3ccccc3)c3ccccc3)N2C1=O", "values": [
      {"measurement": "IC50", "setting": "[4]", "result": "< 100", "unit": "nM"},
      {"measurement": "IC50", "setting": "[5]", "result": "< 100", "unit": "nM"}
    ]},
    {"molecule": "CN[C@@H](C)C(=O)N[C@H]1CN(C(=O)Nc2ccc(NC(=O)N3CC[C@H]4CC[C@@H](C(=O)N[C@H]5C[C@@H]5c5ccc(C(F)(F)F)cc5F)N4C(=O)[C@@H](NC(=O)[C@H](C)NC)C3)cc2)CC[C@H]2CC[C@@H](C(=O)N[C@H]3C[C@@H]3c3ccc(C(F)(F)F)cc3F)N2C1=O", "values": [
      {"measurement": "IC50", "setting": "[4]", "result": "< 10000", "unit": "nM"},
      {"measurement": "IC50", "setting": "[5]", "result": "< 10000", "unit": "nM"}
    ]}
  ]
}
